Source: PubChem BioAssay AID1259308 (NCATS, 2017)
The whole screen tested about 59,000 reagents; below is a random part of them. About 1,510 of all reagents (2.6%) were called active. 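Calls use total luciferase alone and ignore viability, so some active siRNAs may act by altering cell number.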 Reagents against one gene are numbered here.

Aim: 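Knock-downs that increase output of a recombinant reporter protein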 (primary screen)
Cell system: human HEK293 embryonic kidney cells stably expressing firefly luciferase (HEK-CMV-Luc2-Hygro)
Knock-down reagent: single siRNA against human genes, 0.8 pmol siRNA per well
Time to read-out: 72 h
Read-out: 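Luciferase light (ONE-Glo) measured on one replicate plate set and viability (CellTiter-Glo) on the other, scaled to a negative control siRNA, with robust z-scores and luciferase per cell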
Reading the numbers: total luciferase, z-score and total luciferase, % of control: higher = more reporter protein produced; luciferase per cell, z-score: higher = more reporter output per viable cell; viable cells, % of control: higher = more viable cells
Hit rule: 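Active when the median/MAD z-score for overall luciferase is greater than 3; a gene was taken forward for validation with new siRNAs if at least two of its three siRNAs passed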
Meaning of the calls: active = raised luciferase; inactive = no rise

no.	Target gene	reagent	total luciferase, z-score	total luciferase, % of control	luciferase per cell, z-score	viable cells, % of control	activity call
1	NDST2 (N-deacetylase and N-sulfotransferase 2)	1	-1.07	60.7	-1.48	100	inactive
2	NDST2 (N-deacetylase and N-sulfotransferase 2)	2	0.15	84.9	-0.568	110	inactive
3	NDST2 (N-deacetylase and N-sulfotransferase 2)	3	2.13	124	0.837	111	inactive
4	ARIH1 (ariadne RBR E3 ubiquitin protein ligase 1)	1	0.221	86.3	0.286	89.4	inactive
5	ARIH1 (ariadne RBR E3 ubiquitin protein ligase 1)	2	-0.142	79.1	1.03	67.4	inactive
6	ARIH1 (ariadne RBR E3 ubiquitin protein ligase 1)	3	0.134	84.6	0.229	88.9	inactive
7	ENPEP (glutamyl aminopeptidase)	1	1.17	105	0.741	96.6	inactive
8	ENPEP (glutamyl aminopeptidase)	2	0.128	84.4	-0.739	115	inactive
9	ENPEP (glutamyl aminopeptidase)	3	0.653	94.9	-0.0894	109	inactive
10	GUCA2A (guanylate cyclase activator 2A)	1	-0.127	79.4	-0.608	104	inactive
11	GUCA2A (guanylate cyclase activator 2A)	2	0.493	91.7	0.0658	101	inactive
12	GUCA2A (guanylate cyclase activator 2A)	3	-0.246	77	-0.647	102	inactive
13	MEIS1-AS3 (MEIS1 antisense RNA 3)	1	-0.91	63.8	-0.759	87.1	inactive
14	MEIS1-AS3 (MEIS1 antisense RNA 3)	2	0.13	84.5	0.978	73	inactive
15	MEIS1-AS3 (MEIS1 antisense RNA 3)	3	0.318	88.2	1.23	71.2	inactive
16	HSPA8 (heat shock protein family A (Hsp70) member 8)	1	0.244	86.7	0.473	85.6	inactive
17	HSPA8 (heat shock protein family A (Hsp70) member 8)	2	-0.57	70.6	-0.214	83.4	inactive
18	HSPA8 (heat shock protein family A (Hsp70) member 8)	3	-0.939	63.2	-1.38	102	inactive
19	GNPDA2 (glucosamine-6-phosphate deaminase 2)	1	-1.6	50.1	-1.61	85.6	inactive
20	GNPDA2 (glucosamine-6-phosphate deaminase 2)	2	-0.76	66.8	-0.57	86.7	inactive
21	GNPDA2 (glucosamine-6-phosphate deaminase 2)	3	0.0517	82.9	-0.497	106	inactive
22	OR2T4 (olfactory receptor family 2 subfamily T member 4)	1	-0.838	65.2	-1.53	109	inactive
23	OR2T4 (olfactory receptor family 2 subfamily T member 4)	2	0.31	88.1	0.468	87	inactive
24	OR2T4 (olfactory receptor family 2 subfamily T member 4)	3	1.37	109	0.777	99.4	inactive
25	LINC01465 (long independently transcribed non-coding RNA 1465)	1	-0.635	69.3	-1.27	108	inactive
26	LINC01465 (long independently transcribed non-coding RNA 1465)	2	-2.46	32.9	-2.78	76.4	inactive
27	LINC01465 (long independently transcribed non-coding RNA 1465)	3	-0.689	68.2	-0.758	93	inactive
28	NAIPP3 (NAIP pseudogene 3)	1	0.392	89.7	0.176	95.7	inactive
29	NAIPP3 (NAIP pseudogene 3)	2	-0.16	78.7	1.19	64.4	inactive
30	NAIPP3 (NAIP pseudogene 3)	3	0.2	85.9	-0.0338	96.8	inactive
31	NLGN1 (neuroligin 1)	1	-1.11	59.7	-0.617	78.5	inactive
32	NLGN1 (neuroligin 1)	2	1.41	110	0.974	95.1	inactive
33	NLGN1 (neuroligin 1)	3	1.2	106	0.774	96.3	inactive
34	SFT2D2 (SFT2 domain containing 2)	1	1.4	110	1.45	83.8	inactive
35	SFT2D2 (SFT2 domain containing 2)	2	0.291	87.7	0.00602	97.8	inactive
36	SFT2D2 (SFT2 domain containing 2)	3	-1.63	49.4	-0.637	65.3	inactive
37	SOX8 (SRY-box transcription factor 8)	1	-0.484	72.3	-0.247	86.2	inactive
38	SOX8 (SRY-box transcription factor 8)	2	-0.931	63.4	-0.15	73.7	inactive
39	SOX8 (SRY-box transcription factor 8)	3	1.41	110	1.29	87.5	inactive
40	IGLON5 (IgLON family member 5)	1	0.226	86.4	0.597	82.5	inactive
41	IGLON5 (IgLON family member 5)	2	-0.951	63	-0.694	84.5	inactive
42	IGLON5 (IgLON family member 5)	3	-0.77	66.6	-1.21	102	inactive
43	PPIAP55 (peptidylprolyl isomerase A pseudogene 55)	1	0.0607	83.1	-0.386	103	inactive
44	PPIAP55 (peptidylprolyl isomerase A pseudogene 55)	2	-0.691	68.1	-0.332	83.1	inactive
45	PPIAP55 (peptidylprolyl isomerase A pseudogene 55)	3	-0.367	74.6	-0.754	102	inactive
46	FAM117B (family with sequence similarity 117 member B)	1	1.3	108	0.298	111	inactive
47	FAM117B (family with sequence similarity 117 member B)	2	-0.949	63	-0.312	76.4	inactive
48	FAM117B (family with sequence similarity 117 member B)	3	-0.497	72	-0.515	92.1	inactive
49	C10orf67 (chromosome 10 open reading frame 67)	1	1.27	107	0.463	106	inactive
50	C10orf67 (chromosome 10 open reading frame 67)	2	3.29	147	1.68	106	active
51	C10orf67 (chromosome 10 open reading frame 67)	3	0.187	85.6	0.0764	93.8	inactive
52	C10orf67 (chromosome 10 open reading frame 67)	4	0.772	97.2	0.692	90.6	inactive
53	C10orf67 (chromosome 10 open reading frame 67)	5	-1.72	47.6	-1.79	85.2	inactive
54	C10orf67 (chromosome 10 open reading frame 67)	6	0.305	87.9	-0.0721	100	inactive
55	EVA1C (eva-1 homolog C)	1	-0.0632	80.6	-0.354	98.9	inactive
56	EVA1C (eva-1 homolog C)	2	1.02	102	0.0567	113	inactive
57	EVA1C (eva-1 homolog C)	3	0.606	93.9	0.771	85.7	inactive
58	CENPC (centromere protein C)	1	-0.907	63.8	-1.34	102	inactive
59	CENPC (centromere protein C)	2	-0.789	66.2	-0.589	86.4	inactive
60	CENPC (centromere protein C)	3	0.378	89.4	0.0401	98.9	inactive
61	COMMD2 (COMM domain containing 2)	1	0.182	85.5	0.541	82.8	inactive
62	COMMD2 (COMM domain containing 2)	2	1.06	103	1.37	80.3	inactive
63	COMMD2 (COMM domain containing 2)	3	-0.0142	81.6	-0.629	108	inactive
64	KCNJ8 (potassium inwardly rectifying channel subfamily J member 8)	1	0.85	98.8	2.39	58.8	inactive
65	KCNJ8 (potassium inwardly rectifying channel subfamily J member 8)	2	0.131	84.5	-0.168	98.7	inactive
66	KCNJ8 (potassium inwardly rectifying channel subfamily J member 8)	3	0.654	94.9	-0.0156	106	inactive
67	SLC16A9	1	-1.76	46.9	-1.94	87.5	inactive
68	SLC16A9	2	3.43	150	2.23	93.4	active
69	SLC16A9	3	1.32	108	0.782	98.4	inactive
70	MCF2L (MCF.2 cell line derived transforming sequence like)	1	-1.01	61.7	-1.68	107	inactive
71	MCF2L (MCF.2 cell line derived transforming sequence like)	2	0.679	95.4	0.988	82.2	inactive
72	MCF2L (MCF.2 cell line derived transforming sequence like)	3	0.273	87.3	0.675	81.7	inactive
73	TNFRSF8 (TNF receptor superfamily member 8)	1	0.205	86	-0.155	100	inactive
74	TNFRSF8 (TNF receptor superfamily member 8)	2	0.36	89	0.393	89.7	inactive
75	TNFRSF8 (TNF receptor superfamily member 8)	3	0.0711	83.3	-0.182	97.6	inactive
